This note sets out measurements from PubChem BioAssay AID1347426 (Functional Genomics Laboratory (NCATS/FGL), 2020).

Screen size: about 31,000 sequences; about 1,400 (4.5%) were called active.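 How the source made its calls: active means median seed-adjusted z-score above 1 or below -1; inactive means the rest.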 The list shows a part of the results.

The nature of the assay: Novel Modifiers of Survival Motor Neuron (SMN) Protein: Gene Identification via Genome-wide siRNA Screen.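 Further: luminescence tracks full-length SMN protein made from the SMN2 reporter.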 The following applies: HEK293T SMN2-luciferase reporter, siRNA knockdown, 72 h; actives lie on both sides. In a few lines:
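HEK293T cells stably expressing an SMN2 splicing/cDNA-luciferase reporter were reverse-transfected with a druggable-genome siRNA library and read by luminescence at 72 hours; hits defined by MAD score above 1.0 or below -1.0.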
Take GGGCUGCAAGUGGAAUUCATT against NR1H3: the median seed-adjusted z-score is inactive: 0.426.

GGGUGAGACUAAGAAUAUATT against CA14: the median seed-adjusted z-score is inactive: -0.308.

With GAGAUAGUUCUGUACAUUUTT against PADI2, the median seed-adjusted z-score was inactive: -0.199.

As for AGCUCACAAGGAUCCCAAUTT against THPO, the median seed-adjusted z-score was inactive: -0.0366.

For CGGUCGCAGUAAUAGUGGATT against HNRNPA0, the median seed-adjusted z-score was inactive: 0.149.

As to GCACCAACUCGGAUCAUCATT against GALNT12, the median seed-adjusted z-score is inactive: 0.188.

Take CAUCGUGUAUCCCAACAAATT against TRPA1: the median seed-adjusted z-score is inactive: 0.341.

GCAUCCUGCUCAUAUGUCATT against SLCO6A1: the median seed-adjusted z-score was inactive: 0.0239.

Consider AGCUGACAAUUCUCACUUUTT against AQP8, for which the median seed-adjusted z-score is inactive: -0.763.

With CCGAGAAAAUUUCGAUAAATT against NEB, the median seed-adjusted z-score was inactive: 0.0485.

As to GCUGUGCUAUUUGAUUAAATT against TSEN2, the median seed-adjusted z-score was inactive: 0.

As for ACUCGACCGUGGUGGGUAATT against GJA4, the median seed-adjusted z-score is inactive: -0.18.

Regarding UCAACUCGGUAGAGAGAUATT against KLHL17, the median seed-adjusted z-score is inactive: 0.139.

Consider GCGAGGUAUUGGGAAAUGATT against ZNF367, for which the median seed-adjusted z-score was inactive: -0.377.

In the case of GAGUGUACACUGAUAUUAATT against TOP2B, the median seed-adjusted z-score was inactive: 0.225.

For the sequence CCUCAUGCCUUAACCGUCATT against KIF13A, the median seed-adjusted z-score was inactive: 0.

Take GCAGUGGGUUCUUCCGUAATT against DHX8: the median seed-adjusted z-score is inactive: -0.251.

On to AGUACAAAAAGGAUCAGAATT against HOXA3, for which the median seed-adjusted z-score was inactive: 0.315.

In the case of CAUCUUUGAAGAUCACAUATT against FDX1, the median seed-adjusted z-score was inactive: -0.0549.

With GCAUGCACCUGCUUCCCAATT against LAIR1, the median seed-adjusted z-score is inactive: -0.0897.

Consider GCAUCGUCCGGUACACUAATT against OPRD1, for which the median seed-adjusted z-score was inactive: 0.314.

For CCAGGACACCACAUAUAUATT against CTSZ, the median seed-adjusted z-score was inactive: -0.393.

Regarding CCUCAGGUCUUUAUCGGUATT against LGR4, the median seed-adjusted z-score was inactive: 0.14.

In the case of GAUUCACAUCGUCAAGAAATT against ZNF317, the median seed-adjusted z-score was inactive: 0.087.

In the case of GGGAUUAGUUAACAAUACATT against CHD7, the median seed-adjusted z-score was inactive: 0.138.

With AGUGACCGCUUUAAGCACATT against GLIS2, the median seed-adjusted z-score was inactive: 0.206.

For AAAUACAAGUGUGCAUUUATT against CCRL2, the median seed-adjusted z-score was inactive: 0.575.

Take GCACAACAGGGUUCUAUCATT against EYA2: the median seed-adjusted z-score is inactive: 0.111.

Turning to CAGUUCAUGUGGAUCAUCATT against GABARAPL2, the median seed-adjusted z-score was inactive: 0.528.

Consider GGAAUUGGAAAGAAUCAGATT against C1D, for which the median seed-adjusted z-score was inactive: 0.021.

As for CCCUUGAUUGGGUAACAAATT against WDR46, the median seed-adjusted z-score is inactive: -0.136.

As to GCUUUUCUCUUACUGUGCATT against ZNF558, the median seed-adjusted z-score was inactive: -0.393.

Regarding GGUCUGAAACUCUACUAUATT against SHPRH, the median seed-adjusted z-score was inactive: 0.169.

For the sequence CGAUUCUACAGGUCACGGATT against NFS1, the median seed-adjusted z-score is inactive: 0.141.

As to CCUCGUUUGACACCACUGATT against SCARF2, the median seed-adjusted z-score was inactive: 0.

Turning to GCUACGAUCACAUUACGAATT against JARID1D, the median seed-adjusted z-score was inactive: 0.293.

Turning to CGAAGAUUAGAGGAACAAATT against MLLT10, the median seed-adjusted z-score is inactive: -0.147.

Turning to GUGUAUGUUUGGACCCUGATT against WDR1, the median seed-adjusted z-score was inactive: -0.457.

CCACCGAUGUUCUAAAGAUTT against SLC25A14: the median seed-adjusted z-score was inactive: 0.281.

In the case of GUAAAGAGGUGAAGCAUAUTT against SNTB2, the median seed-adjusted z-score was inactive: 0.268.

For the sequence CGAUGGAGAUCAACGUGAATT against UBE2E2, the median seed-adjusted z-score was active: -1.77.

Turning to CCAUAUUCAUGCUCAGCUUTT against ADCY5, the median seed-adjusted z-score is inactive: -0.123.

With GCAGCAUGAACUUAUCAUATT against ADAM19, the median seed-adjusted z-score is inactive: 0.0996.

ACAUAAAUGCAGCCCAUUUTT against TLX1: the median seed-adjusted z-score was inactive: -0.815.

As for CAAAUCGUGUGGUACAGAATT against SUV39H1, the median seed-adjusted z-score is inactive: -0.0775.

Take GGUUCCCUGCUACGCUAAATT against ALX4: the median seed-adjusted z-score was inactive: -0.121.

With GCACCCAUUUUUCCGGCUATT against PKN2, the median seed-adjusted z-score was inactive: 0.383.

CGGCAUGAAGUUUGAGAUUTT against CLDN14: the median seed-adjusted z-score was inactive: -0.456.

With GGCAGUUGAUUGUGGAUGATT against GCN1L1, the median seed-adjusted z-score was inactive: 0.0513.

In the case of GCACCAGCCUGAAAGUGAATT against SIRPB2, the median seed-adjusted z-score was inactive: 0.

Regarding CAAGCUUGUUAACAUCAAATT against NPVF, the median seed-adjusted z-score was inactive: 0.588.

As for GGAUGAUCGGUGUCCAGGATT against CABP5, the median seed-adjusted z-score was inactive: 0.372.

Take CAAUGAGGCUCUGGACAAATT against IQGAP3: the median seed-adjusted z-score is inactive: -0.183.

For the sequence CUGCUUUGCUGGUAUCGAATT against CRIM1, the median seed-adjusted z-score is inactive: -0.155.

With CACCAUUGACUACCACAAATT against NDST1, the median seed-adjusted z-score is inactive: -0.0763.

AGUCAUACCUUACCCAGCATT against ZNF264: the median seed-adjusted z-score was inactive: 0.617.

GGGAGAAUAUCUCAGAGUATT against CDH5: the median seed-adjusted z-score is inactive: -0.557.

In the case of CGAUUAUUGUGAGCCUAAUTT against JAG1, the median seed-adjusted z-score was inactive: -0.32.

Consider UCACUGAUGUACUACCUAUTT against RPUSD4, for which the median seed-adjusted z-score was inactive: -0.0264.

Take GGAUGCAGAUUGUUCUAGUTT against ZBTB1: the median seed-adjusted z-score was inactive: 0.3.

For CCGUGACAGCGACCAUUCATT against FIBCD1, the median seed-adjusted z-score was inactive: -0.0249.

UGACACUGCUUAACACCAUTT against BCKDHA: the median seed-adjusted z-score was inactive: -0.299.

As for GGCUAAUUACAGUGCAGAATT against GJA1, the median seed-adjusted z-score was inactive: 0.348.

Take GGUCAUUGGUAGGUCUUCATT against AATF: the median seed-adjusted z-score was inactive: 0.182.

For GGAUAAGGGCUGCUCCCAATT against SAT2, the median seed-adjusted z-score was inactive: -0.43.

Turning to CCUGGAUUACAUCUACUUATT against EPHB6, the median seed-adjusted z-score is inactive: -0.0275.

As for GAGCCACUACCUUUGUCCATT against GNB3, the median seed-adjusted z-score was inactive: -0.373.

With GAAUUGAACAGGAUAAAGATT against PGGT1B, the median seed-adjusted z-score was inactive: -0.164.

Regarding GCAGAUCUCGCUACAGGGATT against SFRS2B, the median seed-adjusted z-score was inactive: -0.272.
